PubChem BioAssay AID1159584, Peter MacCallum Cancer Centre | 2016
The whole screen tested about 18,000 reagents; shown is a part drawn at random. Reagents against one gene are numbered here. No sequences are given here. The record does not give: the amount of reagent, the time to read-out.

Purpose: 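Knock-downs that harm CDH1-null cells more than parental MCF10A cells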 (primary screen)
Cells: human MCF10A breast epithelial cells, parental and CDH1-null
Knock-down reagent: siRNA against human genes
Read-out: 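ATP luminescence (CellTiter-Glo) viability per line relative to mean mock wells over all plates, and the ratio of CDH1-null to parental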
Reading the numbers: CDH1-null / parental viability ratio: higher = CDH1-null cells survive relatively better than parental; CDH1-null viability vs mock: higher = more viable CDH1-null cells; parental viability vs mock: higher = more viable parental cells

| Target gene | reagent | CDH1-null / parental viability ratio | CDH1-null viability vs mock (fraction of mock) | parental viability vs mock (fraction of mock) |
| --- | --- | --- | --- | --- |
| C1QTNF5 (C1q and TNF related 5) | 1 | 0.88 | 0.5 | 0.57 |
| DNASE1L2 (deoxyribonuclease 1 like 2) | 1 | 1.02 | 0.88 | 0.86 |
| P3H3 (prolyl 3-hydroxylase 3) | 1 | 0.7 | 0.52 | 0.74 |
| EMX1 (empty spiracles homeobox 1) | 1 | 0.92 | 0.46 | 0.5 |
| RRP9 | 1 | 0.9 | 0.57 | 0.63 |
| SCD5 (stearoyl-CoA desaturase 5) | 1 | 1.13 | 0.88 | 0.78 |
| SF3A2 (splicing factor 3a subunit 2) | 1 | 1.33 | 0.72 | 0.54 |
| NDST1 (N-deacetylase and N-sulfotransferase 1) | 1 | 0.95 | 0.88 | 0.93 |
| CLECL1 (C-type lectin like 1) | 1 | 1.37 | 0.93 | 0.68 |
| CNOT6L (CCR4-NOT transcription complex subunit 6 like) | 1 | 0.91 | 0.73 | 0.8 |
| ENO1 (enolase 1) | 1 | 0.84 | 0.58 | 0.69 |
| ACTN3 (actinin alpha 3) | 1 | 1.18 | 0.87 | 0.74 |
| HSPA1L (heat shock protein family A (Hsp70) member 1 like) | 1 | 1.05 | 0.86 | 0.82 |
| OR4C45 | 1 | 1.09 | 0.89 | 0.82 |
| ZDHHC17 (zDHHC palmitoyltransferase 17) | 1 | 1.12 | 0.93 | 0.83 |
| ILRUN | 1 | 0.83 | 0.65 | 0.78 |
| BCL2L10 (BCL2 like 10) | 1 | 0.97 | 0.68 | 0.7 |
| ZCCHC12 (zinc finger CCHC-type containing 12) | 1 | 0.51 | 0.43 | 0.84 |
| LSM7 | 1 | 1.55 | 0.76 | 0.49 |
| MTRF1L (mitochondrial translation release factor 1 like) | 1 | 1.14 | 1 | 0.88 |

Quoted from the entries so far (8 entries):
| Target gene | reagent | CDH1-null / parental viability ratio | CDH1-null viability vs mock (fraction of mock) | parental viability vs mock (fraction of mock) |
| --- | --- | --- | --- | --- |
| CNOT6L (CCR4-NOT transcription complex subunit 6 like) | 1 | 0.91 | 0.73 | 0.8 |
| ENO1 (enolase 1) | 1 | 0.84 | 0.58 | 0.69 |
| ACTN3 (actinin alpha 3) | 1 | 1.18 | 0.87 | 0.74 |
| HSPA1L (heat shock protein family A (Hsp70) member 1 like) | 1 | 1.05 | 0.86 | 0.82 |
| OR4C45 | 1 | 1.09 | 0.89 | 0.82 |
| ZDHHC17 (zDHHC palmitoyltransferase 17) | 1 | 1.12 | 0.93 | 0.83 |
| ILRUN | 1 | 0.83 | 0.65 | 0.78 |
| BCL2L10 (BCL2 like 10) | 1 | 0.97 | 0.68 | 0.7 |

The listing continues.
| Target gene | reagent | CDH1-null / parental viability ratio | CDH1-null viability vs mock (fraction of mock) | parental viability vs mock (fraction of mock) |
| --- | --- | --- | --- | --- |
| LCLAT1 (lysocardiolipin acyltransferase 1) | 1 | 1.04 | 1.09 | 1.05 |
| CCDC185 (coiled-coil domain containing 185) | 1 | 0.94 | 0.64 | 0.68 |
| CPN1 (carboxypeptidase N subunit 1) | 1 | 0.99 | 0.7 | 0.71 |
| MRAP (melanocortin 2 receptor accessory protein) | 1 | 1.15 | 0.75 | 0.65 |
| CCDC74A (coiled-coil domain containing 74A) | 1 | 0.93 | 0.64 | 0.69 |
| GPR146 (G protein-coupled receptor 146) | 1 | 1.32 | 1.12 | 0.85 |
| NDE1 (nudE neurodevelopment protein 1) | 1 | 1.42 | 0.17 | 0.12 |
| CRACR2A (calcium release activated channel regulator 2A) | 1 | 1.04 | 0.47 | 0.45 |
| CABP1 (calcium binding protein 1) | 1 | 0.98 | 0.84 | 0.86 |
| HBE1 (hemoglobin subunit epsilon 1) | 1 | 1.03 | 0.99 | 0.96 |
| CIAO2B (cytosolic iron-sulfur assembly component 2B) | 1 | 1.01 | 0.81 | 0.8 |
| PATE2 (prostate and testis expressed 2) | 1 | 0.96 | 0.88 | 0.92 |
| SMARCC1 (SWI/SNF related BAF chromatin remodeling complex subunit C1) | 1 | 0.79 | 0.62 | 0.78 |
| STAP1 (signal transducing adaptor family member 1) | 1 | 0.95 | 0.81 | 0.85 |
| BNIP3 (BCL2 interacting protein 3) | 1 | 1.21 | 0.46 | 0.38 |
| NUP35 (nucleoporin 35) | 1 | 0.65 | 0.36 | 0.55 |
| FOXD4L3 (forkhead box D4 like 3) | 1 | 0.96 | 0.86 | 0.9 |
| FOXD4L3 (forkhead box D4 like 3) | 2 | 1.09 | 1 | 0.92 |
| RPS17P16 (ribosomal protein S17 pseudogene 16) | 1 | 1.06 | 0.86 | 0.81 |
| DGKH (diacylglycerol kinase eta) | 1 | 0.93 | 0.86 | 0.92 |
| LRTM2 (leucine rich repeat transmembrane protein 2) | 1 | 1.15 | 0.9 | 0.78 |
| BBS9 (Bardet-Biedl syndrome 9) | 1 | 1.12 | 0.92 | 0.82 |
| DDT (D-dopachrome tautomerase) | 1 | 1.02 | 0.9 | 0.88 |
| UBE2L3 (ubiquitin conjugating enzyme E2 L3) | 1 | 1 | 0.88 | 0.88 |
| ALOX12B (arachidonate 12-lipoxygenase, 12R type) | 1 | 1.27 | 1.02 | 0.8 |
| CCNG1 (cyclin G1) | 1 | 0.9 | 1.06 | 1.18 |
